Data from patent US8410145B2, “Insecticidal compounds” (Syngenta Crop Protection LLC, priority 2007, dated 2013).
Some of these results come from one statement about several compounds together.

Legend:
Format in all cases: in vivo
[1] = system: Spodoptera littoralis (Egyptian Cotton Leafworm); assay: Spodoptera littoralis cotton leaf disc spray test; settings: 200 ppm spray on cotton leaf discs, L1 larvae; mortality, feeding behavior, growth regulation 3 DAT
Source text: (§1) Cotton leaf discs were placed on agar in a 24-well microtiter plate and sprayed with test solutions at an application rate of 200 ppm. After drying, the leaf discs were infested with 5 to L1 larvae. The samples were checked for mortality, feeding behavior, and growth regulation 3 days after treatment (DAT). The following compounds gave at least 80% control of Spodoptera littoralis: A1, A2, A3, A4, A6, A9, A10, A11, A12, A13, A14, A15, A16, A19, A20, A22, A23, A25, A26, A27, B1, B2, B3, B5, B6, B7, B8, B9, B11, B12, B13, B15, B16, B18, B19, B20, B21, B22, B24, B26, B27, B28, C1, C2, C3, C4, C5, C6, C7, C8, C9, C10, C12, C13, C16, C19, C20, C21, C22, C23, D1, D2, D3, D4, D5, D6, D7, D8, D9, D10, D11, D12, D13, D14, D15, D16, D17, D18, D19, D20, D21, D22, D23, D24. Heliothis virescens (Tobacco Budworm): Eggs (0-24 h old) were placed in 24-well microtiter plate on artificial diet and treated with test solutions at an application rate of 200 ppm (concentration in well 18 ppm) by pipetting. After an incubation period of 4 days, samples were checked for egg mortality, larval mortality, and growth regulation. The following compounds gave at least 80% control of Heliothis virescens: A1, A2, A3, A4, A13, A15, A17, A19, A20, A22, A23, A25, A26, A28, B1, B2, B3, B5, B6, B7, B9, B11, B13, B15, B18, B19, B20, B21, B25, B26, B27, B28, C1, C2, C3, C4, C5, C6, C7, C8, C9, C10, C12, C14, C16, C17, C19, C20, C21, C22, D1, D2, D3, D4, D5, D6, D7, D8, D9, D10, D11, D12, D13, D14, D15, D16, D17, D18, D19, D20, D21, D22, D23, E1, E2, E3, E4, E5. Plutella xylostella (Diamond Back Moth): 24-well microtiter plate (MTP) with artificial diet was treated with test solutions at an application rate of 200 ppm (concentration in well 18 ppm) by pipetting. After drying, the MTP's were infested with L2 larvae (7-12 per well). After an incubation period of 6 days, samples were checked for larval mortality and growth regulation. The following compounds gave at least 80% control of Plutella xylostella: A1, A3, A4, A10, All, A15, A19, A23, A25, B1, B2, B3, B5, B6, B7, B8, B9, B11, B13, B15, B18, B19, B20, B21, B26, B27, B28, C1, C2, C3, C4, C6, C7, C8, C9, C12, C16, C19, C20, C22, D1, D2, D3, D4, D5, D6, D7, D8, D9, D10, D12, D13, D14, D15, D16, D17, D18, D19, D20, D21, D22, D23, E1, E3, E5. Diabrotica balteata (Corn Root Worm): A 24-well microtiter plate (MTP) with artificial diet was treated with test solutions at an application rate of 200 ppm (concentration in well 18 ppm) by pipetting. After drying, the MTP's were infested with L2 larvae (6-10 per well). After an incubation period of 5 days, samples were checked for larval mortality and growth regulation. The following compounds gave at least 80% control of Diabrotica balteata: A2, A3, A4, A9, A11, A12, A13, A14, A15, A17, A19, A21, A22, A23, A24, A25, A26, B1, B2, B3, B6, B7, B8, B11, B13, B14, B15, B18, B19, B20, B21, B22, B26, B28, C1, C2, C3, C4, C5, C6, C7, C8, C9, C10, C12, C14, C15, C16, C19, C20, C21, C22, C23, C26, D1, D2, D4, D5, D6, D7, D8, D9, D10, D12, D14, D15, D16, D17, D18, D19, D20, D21, D22, D23, E2, E3, E5. Thrips tabaci (Onion Thrips): Sunflower leaf discs were placed on agar in a 24-well microtiter plate and sprayed with test solutions at an application rate of 200 ppm. After drying, the leaf discs were infested with an […] population of mixed ages. After an incubation period of 7 days, samples were checked for mortality. The following compounds gave at least 80% control of Thrips tabaci: B1, B7, B11, B15, B18, B19, B28, D1, D2, D3, D4, D5, D6, D7, D8, D9, D10, D12, D16, D18, D19, D20, D21, D23. Tetranychus urticae (Two-Spotted Spider Mite): Bean leaf discs on agar in 24-well microtiter plates were sprayed with test solutions at an application rate of 200 ppm. After drying, the leaf discs are infested with mite populations of mixed ages. 8 days later, discs are checked for egg mortality, larval mortality, and adult mortality. […]

[2] = system: Heliothis virescens (Tobacco Budworm); assay: Heliothis virescens egg test on artificial diet; settings: 200 ppm (concentration in well 18 ppm), eggs 0-24 h old on artificial diet; egg mortality, larval mortality, growth regulation after 4 days
Source text: as §1

[3] = system: Plutella xylostella (Diamond Back Moth); assay: Plutella xylostella larvae test on artificial diet; settings: 200 ppm (concentration in well 18 ppm), L2 larvae, larval mortality and growth regulation after 6 days
Source text: as §1

[4] = system: Diabrotica balteata (Corn Root Worm); assay: Diabrotica balteata larvae test on artificial diet; settings: 200 ppm (concentration in well 18 ppm), L2 larvae, larval mortality and growth regulation after 5 days
Source text: as §1

[5] = system: Thrips tabaci (Onion Thrips); assay: Thrips tabaci sunflower leaf disc spray test; settings: 200 ppm spray on sunflower leaf discs, population of mixed ages; mortality after 7 days
Source text: as §1

[6] = system: Tetranychus urticae (Two-Spotted Spider Mite); assay: Tetranychus urticae bean leaf disc spray test; settings: 200 ppm spray on bean leaf discs, mite populations of mixed ages; egg, larval and adult mortality 8 days later
Source text: as §1

O=C(Nc1cccc(C2=NOC(c3cc(Cl)cc(Cl)c3)(C(F)(F)F)C2)c1F)c1ccc(OC(F)(F)F)cc1 (racemic) [B11]
at least 80%: control of Spodoptera littoralis [1] | control of Heliothis virescens [2] | control of Plutella xylostella [3] | control of Diabrotica balteata [4] | control of Thrips tabaci [5] | control of Tetranychus urticae [6]

Cc1cc(C#N)ccc1C(=O)Nc1cccc(C2=NOC(c3cc(Cl)cc(Cl)c3)(C(F)(F)F)C2)c1F (racemic) [B28]
at least 80%: control of Spodoptera littoralis [1] | control of Heliothis virescens [2] | control of Plutella xylostella [3] | control of Diabrotica balteata [4] | control of Thrips tabaci [5] | control of Tetranychus urticae [6]

Cc1cc(C#N)ccc1C(=O)Nc1cc(C2=NOC(c3cc(Cl)cc(Cl)c3)(C(F)(F)F)C2)ccc1C#N (stereo not drawn) [D4]
at least 80%: control of Spodoptera littoralis [1] | control of Heliothis virescens [2] | control of Plutella xylostella [3] | control of Diabrotica balteata [4] | control of Thrips tabaci [5] | control of Tetranychus urticae [6]

Cc1cc(F)ccc1C(=O)Nc1cc(C2=NOC(c3cc(Cl)cc(Cl)c3)(C(F)(F)F)C2)ccc1C#N (stereo not drawn) [D10]
at least 80%: control of Spodoptera littoralis [1] | control of Heliothis virescens [2] | control of Plutella xylostella [3] | control of Diabrotica balteata [4] | control of Thrips tabaci [5] | control of Tetranychus urticae [6]

N#Cc1ccc(C2=NOC(c3cc(Cl)cc(Cl)c3)(C(F)(F)F)C2)cc1NC(=O)c1ccc([N+](=O)[O-])cc1Cl (stereo not drawn) [D12]
at least 80%: control of Spodoptera littoralis [1] | control of Heliothis virescens [2] | control of Plutella xylostella [3] | control of Diabrotica balteata [4] | control of Thrips tabaci [5] | control of Tetranychus urticae [6]

N#Cc1ccc(C2=NOC(c3cc(Cl)cc(Cl)c3)(C(F)(F)F)C2)cc1NC(=O)c1ccc(C(F)(F)F)cc1 (stereo not drawn) [D16]
at least 80%: control of Spodoptera littoralis [1] | control of Heliothis virescens [2] | control of Plutella xylostella [3] | control of Diabrotica balteata [4] | control of Thrips tabaci [5] | control of Tetranychus urticae [6]

N#Cc1ccc(C2=NOC(c3cc(Cl)cc(Cl)c3)(C(F)(F)F)C2)cc1NC(=O)c1ccc(F)cc1Cl (stereo not drawn) [D20]
at least 80%: control of Spodoptera littoralis [1] | control of Heliothis virescens [2] | control of Plutella xylostella [3] | control of Diabrotica balteata [4] | control of Thrips tabaci [5] | control of Tetranychus urticae [6]

Cc1nnsc1C(=O)Nc1cc(C2=NOC(c3cc(Cl)cc(Cl)c3)(C(F)(F)F)C2)ccc1C#N (stereo not drawn) [D21]
at least 80%: control of Spodoptera littoralis [1] | control of Heliothis virescens [2] | control of Plutella xylostella [3] | control of Diabrotica balteata [4] | control of Thrips tabaci [5] | control of Tetranychus urticae [6]
